Test results taken from PubChem BioAssay AID504834 (National Center for Advancing Translational Sciences (NCATS), 2011).
Among all 320,000 compounds or so, about 22,000 (6.9%) were called active. The inconclusive results got no clear call from the source; some entries with a clear call stand among them for comparison. Calls follow the shape of the dose curve; as a rule, active = well fitted inhibition curve with a large enough effect; inconclusive = small, poorly fitted or top-dose-only effect, or another doubt; inactive = no such curve, though single readings can be large or run the other way. Where the call is inconclusive, the potency comes from a doubtful curve fit.
% is scaled to controls: 0 for no effect and ±100 for the full control effect; potency is read from the fitted curve at half-maximal effect.

Experiment: Primary qHTS for delayed death inhibitors of the malarial parasite plastid, 96 hour incubation
Details: P. falciparum luciferase reporter growth; series mostly up to 28.7 µM; activity change, negative = inhibition: at the top concentration
Outline: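 Infected RBCs, 2% Hct / 0.05% parasitemia final; luciferase-reporter P. falciparum; cpd 96 h, 37 C, 5% CO2; luciferase detection reagent; luminescence.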
For `CCCN(CCC)C(=O)[C@@H](CCC(=O)O)NC(=O)c1ccccc1`, the “activity change, negative = inhibition” value was inactive: -12.1%. For `COc1ccc(OC)c(CN(CCN2CCOCC2)C(=O)Nc2cccc(Cl)c2)c1`, the “activity change, negative = inhibition” value was inactive: -21.1%. For `COc1ccc(OC)c(NP(=O)(Oc2ccc(Cl)cc2)Oc2ccc(Cl)cc2)c1`, the Potency was inconclusive: 18.5 µM [inhibitor, single point]. For `CC(C)NC(=O)c1cc(-c2ccco2)nn1-c1ccc(Cl)cc1`, the Potency was inconclusive: 18.5 µM [inhibitor, single point]. With `CCOc1ccc(NC(=O)CSc2nnc(-c3ccco3)n2C)cc1` the Potency was inconclusive: 9.28 µM [inhibitor, partial curve]. In the case of `C#CCOCCOCCOCCNc1nc(N2CCN(C(=O)[C@H](CCCCN)n3cc([C@@H](N)C(C)CC)nn3)CC2)nc(N2CCN(C(=O)[C@H](Cc3ccc(O)cc3)n3cc([C@@H](N)CC(C)C)nn3)CC2)n1` (some centres undefined), the “activity change, negative = inhibition” value was inactive: 10.7%. For `O=C(Nc1ccc(Oc2ccc(C(=O)O)c(C(=O)O)c2)cc1)c1cccs1`, the Potency was active: 2.08 µM. With `OCCC1CN(Cc2cccn2-c2ccccn2)CCN1Cc1ccccc1` (centres undefined) the Potency was inconclusive: 18.5 µM [inhibitor, single point]. With `Cc1cc(C)c(S(=O)(=O)Nc2cccc(/C=C/C(=O)O)c2)c(C)c1` the “activity change, negative = inhibition” value was inactive: 4.1%. With `CCOc1cc(/C=C2/NC(=O)N(CC(=O)Nc3cccc(C)c3)C2=O)ccc1OC` the “activity change, negative = inhibition” value was inactive: -17.3%. With `CC1(C)CC(=O)C=C(NNC(=O)C2CCCCC2)C1` the “activity change, negative = inhibition” value was inactive: -10.6%. In the case of `COc1ccc(C(=O)N/C(=C\c2cn(S(=O)(=O)N(C)C)c3ccccc23)C(=O)NCCCN2CCOCC2)cc1`, the “activity change, negative = inhibition” value was inactive: 0.0463%. For `COc1ccc(-n2cc(CNC(C)c3ccncn3)c(-c3cccc(F)c3)n2)cc1` (centres undefined), the Potency was inconclusive: 4.15 µM [inhibitor, partial curve]. In the case of `Cc1nn(-c2ccccc2)c(N2CCCC2)c1/C=N/NC(=S)Nc1ccccc1C(F)(F)F`, the Potency was active: 4.65 µM. For `Nc1c(C(=O)CSc2nc(-c3ccccc3)cs2)c(=O)[nH]c(=O)n1C1CC1`, the “activity change, negative = inhibition” value was inactive: -21.2%. With `Cc1ccc(SC[C@H](Cc2ccccc2)N2CCN(C)CCC2=O)cc1` the Potency was inconclusive: 7.38 µM [inhibitor, partial curve, poor fit]. For `Nc1nc(NC(=O)c2cccnc2)nn1-c1ccccc1`, the “activity change, negative = inhibition” value was inactive: 59.5%. With `CC1(C)C[C@H]2C=C(C=O)[C@]3(C=O)C[C@]3(C)[C@H]2C1` the Potency was inconclusive: 14.7 µM [inhibitor, single point]. With `Cc1ccc(NC(=O)COC(=O)c2c(-c3ccccc3)noc2C)cc1` the Potency was inconclusive: 18.5 µM [inhibitor, single point]. In the case of `Cc1ccc(CNC(=O)/C=C/c2c(Cl)cccc2Cl)cc1`, the “activity change, negative = inhibition” value was inactive: 27.9%. For `CCCCN(C)C(=O)c1oc2ccc(S(=O)(=O)N3CCCCCC3)cc2c1C`, the Potency was inconclusive: 10.4 µM [inhibitor, single point]. With `O=C(CN1CCc2ccccc2C1)Nc1ccc(Br)cc1` the “activity change, negative = inhibition” value was inactive: -25%. With `Cc1ccccc1CCN1CCCC(CN(C)C(=O)c2ccc3ncccc3c2)C1` (centres undefined) the Potency was inconclusive: 18.5 µM [inhibitor, single point]. For `O=C(OC[C@H]1O[C@@H](OC(=O)c2cc(O)c(O)c(OC(=O)c3cc(O)c(O)c(O)c3)c2)[C@H](OC(=O)c2cc(O)c(O)c(OC(=O)c3cc(O)c(O)c(O)c3)c2)[C@@H](OC(=O)c2cc(O)c(O)c(OC(=O)c3cc(O)c(O)c(O)c3)c2)[C@@H]1OC(=O)c1cc(O)c(O)c(OC(=O)c2cc(O)c(O)c(O)c2)c1)c1cc(O)c(O)c(OC(=O)c2cc(O)c(O)c(O)c2)c1`, the Potency was active: 9.28 µM. For `CCCCCCCNC(=O)C1(CC2CC(c3cccc(Br)c3)=NO2)CCN(C(=O)CCCCCBr)CC1` (centres undefined), the Potency was inconclusive: 11.7 µM [inhibitor, partial curve, poor fit]. In the case of `COc1ccc(-c2nn(-c3ccccc3)cc2C(=O)Nc2nc(CC(C)=O)ns2)cc1`, the Potency was inconclusive: 18.5 µM [inhibitor, partial curve, poor fit]. With `CSc1nc2sc3c(c2c(=O)[nH]1)CCC3` the “activity change, negative = inhibition” value was inactive: 1.02%. With `CC1CN(C(=O)c2ccc(COc3ccccc3Cl)o2)CC(C)O1` (centres undefined) the “activity change, negative = inhibition” value was inactive: 10.6%. In the case of `O=C(NC1CCCCNC1=O)c1ccc(Cl)cc1` (centres undefined), the “activity change, negative = inhibition” value was inactive: 91.6%. With `Cc1ccc(NN=C2c3ccccc3-c3ccccc32)cc1` the “activity change, negative = inhibition” value was inactive: 185%. With `CCCCn1c(N)c(N(CCOC)C(=O)CN2C(=O)c3ccccc3C2=O)c(=O)[nH]c1=O` the Potency was inconclusive: 11.7 µM [inhibitor, partial curve]. With `COc1cc(NC(=O)c2ccc3c(c2)OCCO3)ccc1NC(=O)c1ccco1` the Potency was active: 2.33 µM. With `CCCC(=O)NC(c1ccc(C(C)C)cc1)c1ccc2cccnc2c1O` (centres undefined) the Potency was active: 14.7 µM. With `CCOc1cccc(CN2CCCC(CCC(=O)NCc3ccccc3F)C2)c1O` (centres undefined) the Potency was active: 1.47 µM.
